PubChem BioAssay AID1347075 (National Center for Advancing Translational Sciences (NCATS), 2019)
The whole screen tested about 400,000 compounds, of which about 5,500 (1.4%) were called active. Inconclusive means that the source gave no clear call. Such entries were picked first, then a sample of the others. Calls come from the whole dose curve; as a rule, active = well fitted cell-killing curve with a large enough effect; inconclusive = small, poorly fitted or top-dose-only effect, or effect the other way; inactive = flat fitted curve, though single readings scatter. Where the call is inconclusive, the potency comes from a doubtful curve fit.

assay: qHTS assay for MDR1-selective chemotherapeutics: Primary screen using the parental adenocarcinoma cell KB-3-1; details: KB-3-1 viability, CellTiter-Glo ATP luminescence, 72 h; activity change, negative = cytotoxic: at 46.1 µM (top of the series); note: nearly all actives have a fitted effect of over 60% in size
Outline: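 KB-3-1 cells, DMEM (no phenol red) + 10% FBS; compound by pin transfer, 72 h, 37 °C. Readout: CellTiter-Glo luminescence after 10 min. Data normalized, curve-fitted.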
% is set by controls: 0 for no effect and ±100 for the full control effect; potency is the fitted concentration of half-maximal effect.

Compound | Potency | activity change, negative = cytotoxic
COC(=O)c1sccc1NC(=S)N1CCN(c2cccc(C)c2C)CC1 | inconclusive: 23.1 µM [cytotoxic, single point] | –
Cc1ccc(S(=O)(=O)Nc2ccccc2N2CCOCC2)cc1 | active: 13 µM | –
CCCCCCN(C(=O)CCCN1C(=O)NC(c2ccc([N+](=O)[O-])cc2)C(C(=O)OCc2ccccc2)=C1C)C(C)C(=O)NCCCC (stereo not given) | inactive | –
CN(C)c1ccc(-c2ccnc3c2CC(C)(C(=O)NCc2cccs2)O3)cc1 (stereo not given) | inconclusive: 29.1 µM [cytotoxic, single point] | –
Cc1ccc(-c2csc3ncnc(N4CCN(C(=O)c5ccccc5)CC4)c23)cc1 | inconclusive: 29.1 µM [cytotoxic, single point] | –
Cc1ccc(SCC(=O)c2c(C)nc3ccccn23)cc1 | inconclusive: 2.59 µM [cytotoxic, partial curve, poor fit] | –
CC(/C=C1\SC(=O)N(CC(=O)Nc2cccc(O)c2)C1=O)=C\c1ccccc1 | – | inconclusive: 30.4%
COc1ccc(C(=O)NCc2nnc(SCC(=O)NO)n2Cc2ccccc2)cc1 | inactive | –
COc1ccc(C(=O)c2sc3nc(-c4ccccc4)ccc3c2N)cc1 | inconclusive: 18.4 µM [cytotoxic, single point] | –
CCc1cc(=O)oc2c(C)c(OCC(=O)NCCN3CCOCC3)ccc12 | inconclusive: 18.4 µM [rising, partial curve, poor fit] | –
COC(=O)Nc1ccc(S(=O)(=O)N2CCCC(C(=O)N3CC(C)OC(C)C3)C2)cc1 (stereo not given) | inactive | –
CCCc1nn2c(=O)cc(COC(=O)c3ccccc3NC(=O)c3ccc(OCC)cc3)nc2s1 | inactive | –
O=C(Nc1ccc(Cl)cc1F)c1cc(S(=O)(=O)NC2CCCCCC2)ccc1F | inactive | –
CC(C)CCNC(=O)C1CCC(CNS(=O)(=O)c2cccc3nsnc23)CC1 (stereo not given) | inactive | –
COc1ccc2nc(NC(=O)c3ccco3)sc2c1 | inconclusive: 11.6 µM [cytotoxic, partial curve, poor fit] | –
Cc1cc(/C=C(\C#N)C(=O)Nc2ccc(F)cc2)c(C)n1-c1ccc(N2CCOCC2)c([N+](=O)[O-])c1 | inconclusive: 3.26 µM [cytotoxic, full curve] | –
Cc1ccc(C(=O)c2cn(Cc3ccccc3)c3ccccc3c2=O)cc1 | inactive | –
Cc1cccc(-c2nc3cc(NC(=O)COc4ccccc4F)ccc3o2)c1 | inactive | –
COc1ccc2c(Cl)c(C(=O)N/N=C/c3ccc4c(c3)OCO4)sc2c1 | inconclusive: 29.1 µM [cytotoxic, single point] | –
Cc1cccc(NC(=O)c2oc3ccccc3c2NC(=O)Cc2coc3cc(C)cc(C)c23)c1 | inactive | –
CCOC(=O)c1ccccc1NS(=O)(=O)c1ccc(OCC)cc1 | inconclusive: 29.1 µM [cytotoxic, single point] | –
O=S(=O)(Nc1nc2ccccc2[nH]1)c1ccccc1 | inactive | –
CCCCC(O)(CCCC)C(=O)NN(C(=O)OCC)c1ccccc1 | inactive | –
Cc1cccc(-n2ncc3c2CCCC3NC(=O)c2ccncc2)c1C (stereo not given) | – | inconclusive: -57.4% [cytotoxic]
Cn1nc(Oc2nc(N3CCOCC3)nc(N3CCOCC3)n2)ccc1=O | inconclusive: 18.4 µM [rising, single point] | –

3 successive records already listed:
Compound | Potency | activity change, negative = cytotoxic
CCc1cc(=O)oc2c(C)c(OCC(=O)NCCN3CCOCC3)ccc12 | inconclusive: 18.4 µM [rising, partial curve, poor fit] | –
COC(=O)Nc1ccc(S(=O)(=O)N2CCCC(C(=O)N3CC(C)OC(C)C3)C2)cc1 (stereo not given) | inactive | –
CCCc1nn2c(=O)cc(COC(=O)c3ccccc3NC(=O)c3ccc(OCC)cc3)nc2s1 | inactive | –

(further entries)

Compound | Potency | activity change, negative = cytotoxic
COCCNC(=O)C1CCCN(C(=O)c2ccnc(Cl)c2)CC1 (stereo not given) | inactive | –
CSc1ccc(CN2C(=O)NC3(CCCCCC3)C2=O)cc1 | inconclusive: 25.9 µM [cytotoxic, single point] | –
CCCCN(C(=O)c1ccc([N+](=O)[O-])s1)c1c(N)n(CC(C)C)c(=O)[nH]c1=O | inactive | –
COC(=O)c1ccc(COC(=O)c2ccc(C)c(S(=O)(=O)N3CCCCC3)c2)cc1 | inconclusive: 20.6 µM [cytotoxic, single point] | –
CN1CCC(NCCC(c2ccc(F)cc2)c2ccc(Cl)cc2)CC1 (stereo not given) | active: 16.4 µM | –
COc1ccc(CC(=O)NNC(=O)c2ccc(Br)o2)cc1 | inactive | –
COc1ccc(N(CC(=O)NCCSCc2ccc(C)cc2)S(=O)(=O)c2ccccc2)cc1 | – | inconclusive: -19.3%
CN1CCN(c2nnc(-c3ccccc3)c(-c3ccccc3)n2)CC1 | inactive | –
Cc1ccccc1OCCSc1nc2ccc(NC(=O)c3ccco3)cc2s1 | inactive | –
COc1ccc(/C=N/NC(=O)c2cccc(NC(=O)c3ccccc3Cl)c2)cc1OC | inactive | –
COc1ccc2c(c1)oc1c(SCc3nc4ccccc4[nH]3)nc(C)nc12 | inconclusive: 29.1 µM [cytotoxic, single point] | –
COc1ccc(C2C(C#N)=C(N)Oc3cc4c(cc32)OCO4)cc1 (stereo not given) | inactive | –
O=C(CC(O)(C(F)(F)F)C(F)(F)F)Nc1ccc(Cl)c(Cl)c1 | active: 5.17 µM | –
COc1ccc2nc(C)cc(N/N=C/c3ccc(F)cc3)c2c1 | active: 25.9 µM | –
Cc1cccc(-c2nsc(SCC(=O)Nc3ccc4c(c3)OCO4)n2)c1 | – | inconclusive: -35.8% [cytotoxic]
Cc1ccccc1OCc1n[nH]c(=S)n1-c1cccc(Cl)c1 | inactive | –
CC(=O)c1cccc(-c2ccnc3c2CC(C(=O)NCC2CCOCC2)O3)c1 (stereo not given) | active: 4.61 µM | –
Cc1nc(NC(=O)c2ccco2)sc1C(=O)O | active: 13 µM | –
Cc1ccc2c(cnn2C(=O)CCCC(=O)NCc2ccc(F)cc2)c1 | inconclusive: 29.1 µM [cytotoxic, single point] | –
COc1cc2ncc(S(=O)(=O)c3ccccc3)c(N3CCC4(CC3)OCCO4)c2cc1OC | inconclusive: 20.6 µM [cytotoxic, single point] | –
Cc1ccc(NS(=O)(=O)c2ccc3c(c2)NC(=O)CCS3)c(C)c1 | inconclusive: 29.1 µM [cytotoxic, single point] | –
CCc1ccc(N2CC(C(=O)Nc3ccc(OC)c(S(=O)(=O)N4CCOCC4)c3)CC2=O)cc1 (stereo not given) | inactive | –
CCOCCCNC(=O)C(c1ccc(Cl)cc1)N(Cc1ccc2c(c1)OCO2)C(=O)c1ccc(NC(C)=O)cc1 (stereo not given) | inactive | –
CC(C)OC(=O)CN1C(=O)C(=O)c2ccccc21 | active: 18.4 µM | –
O=[N+]([O-])c1ccc(NC(c2ccccc2)c2ccc3cccnc3c2O)cc1 (stereo not given) | active: 4.61 µM | –
